{"sequences": {"note": "Chains of the proteins cited; added tags and fusions are not shown. Lines headed by an entry give the natural chain unless they say otherwise; changes in a name come on top.", "UniProt P18054": "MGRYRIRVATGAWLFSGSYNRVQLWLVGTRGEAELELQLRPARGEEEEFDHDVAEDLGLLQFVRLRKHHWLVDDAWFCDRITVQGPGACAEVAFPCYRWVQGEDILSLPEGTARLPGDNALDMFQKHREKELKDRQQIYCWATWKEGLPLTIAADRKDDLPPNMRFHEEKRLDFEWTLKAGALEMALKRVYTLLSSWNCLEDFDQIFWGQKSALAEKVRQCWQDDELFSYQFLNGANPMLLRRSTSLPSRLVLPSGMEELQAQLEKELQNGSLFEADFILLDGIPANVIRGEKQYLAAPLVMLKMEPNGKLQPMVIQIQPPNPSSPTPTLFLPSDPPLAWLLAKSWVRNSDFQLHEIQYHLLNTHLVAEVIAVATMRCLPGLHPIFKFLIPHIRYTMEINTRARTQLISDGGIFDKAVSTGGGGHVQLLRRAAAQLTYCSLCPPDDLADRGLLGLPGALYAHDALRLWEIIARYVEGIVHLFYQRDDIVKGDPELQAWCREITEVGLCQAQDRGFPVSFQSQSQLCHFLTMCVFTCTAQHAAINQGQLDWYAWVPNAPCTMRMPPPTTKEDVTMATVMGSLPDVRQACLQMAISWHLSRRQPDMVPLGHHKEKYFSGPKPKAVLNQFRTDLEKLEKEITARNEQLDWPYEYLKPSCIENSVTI"}, "source": "PubChem BioAssay AID1671190", "about": "(National Center for Advancing Translational Sciences (NCATS), 2021)", "note": "In all, about 580,000 compounds went through this assay and about 6,100 (1.1%) were called active. Inconclusive means that the source gave no clear call. Such entries were picked first, then a sample of the others. Calls come from the whole dose curve; as a rule, active = well fitted inhibition curve with a large enough effect; inconclusive = small, poorly fitted or top-dose-only effect, or another doubt; inactive = no such curve, though single readings can be large or run the other way. A potency beside an inconclusive call is a rough fit, not a confirmed value. % is set by controls: 0 for no effect and ±100 for the full control effect; potency is the fitted concentration of half-maximal effect.", "data": [{"biological_target": "Polyunsaturated fatty acid lipoxygenase ALOX12 (Homo sapiens) (UniProt P18054)", "test": "Primary qHTS assay for inhibitors of human arachidonate 12S-lipoxygenase (ALOX12): Round 2", "details": "purified 12hLO, xylenol orange hydroperoxide absorbance; activity change, negative = inhibition: at 108 µM (top of the series) unless noted", "method_in_brief": "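Purified human 12hLO (150 nM final) in 25 mM Hepes, 0.01% Triton X-100, pH 7.0 was preincubated 15 min at room temperature with compound. Then 40 uM arachidonic acid was added, 30 min. Hydroperoxide was read by Fe-XO absorbance ratio 573/405 nm.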", "values": [{"smiles": "Cc1ccc(NC(=S)NCc2ccc3c(c2)OCO3)c(C)c1", "Potency": "active: 39.8 µM"}, {"smiles": "COc1cc(OC)cc(C(=O)NC2CCN(CC(=O)Nc3cccc4ccccc34)CC2)c1", "activity change, negative = inhibition": "inactive: 440%"}, {"smiles": "CCOc1ccc(-c2nc(C#N)c(NCc3ccccc3Cl)o2)cc1", "Potency": "inconclusive: 44.7 µM [inhibitor, partial curve, poor fit]"}, {"smiles": "O=C(CCCC(=O)OCC(=O)c1ccc(Br)cc1)OCC(=O)c1ccc(Br)cc1", "activity change, negative = inhibition": "inactive: -20.9%"}, {"smiles": "Cc1cc(CN(C)c2cc(C3CC(N)C3)nc(N)n2)no1", "note": "(stereo not drawn)", "activity change, negative = inhibition": "inactive: 10.7%"}, {"smiles": "COc1ccccc1NS(=O)(=O)c1cc(-c2n[nH]c(=O)c3ccccc23)ccc1C", "Potency": "inconclusive: 141 µM [inhibitor, partial curve, poor fit]"}, {"smiles": "Cn1nc(C(=O)Nc2ccc(-n3cnnn3)cc2)c2ccccc2c1=O", "Potency": "inconclusive: 79.4 µM [inhibitor, partial curve, poor fit]"}, {"smiles": "CC(C)OC(=O)CSc1nnc(-c2ccco2)n1N", "activity change, negative = inhibition": "inactive: -8.04%"}, {"smiles": "COc1cccc(Nc2nc(-c3ccc([N+](=O)[O-])cc3)nc3ccccc23)c1", "Potency": "inconclusive: 79.4 µM [inhibitor, single point]"}, {"smiles": "Cc1ccc(NC(=O)c2cccnc2C(=O)Nc2ccc(C)cc2)cc1", "Potency": "inconclusive: 25.1 µM [inhibitor, single point]"}, {"smiles": "CS(=O)(=O)N1CCC(C(=O)Nc2ccc(F)cc2)CC1", "Potency": "inconclusive: 141 µM [inhibitor, partial curve, poor fit]"}, {"smiles": "Cc1cc(F)ccc1NC(=O)c1cc(-c2ccc[nH]2)n[nH]1", "Potency": "active: 17.8 µM"}, {"smiles": "O=C(Nc1ccc(Br)cc1)c1cc(-c2cccs2)on1", "activity change, negative = inhibition": "inactive: -13.1%"}, {"smiles": "COc1cc2cc(CN(CCO)C(=O)c3cccs3)c(=O)[nH]c2cc1OC", "Potency": "inconclusive: 35.5 µM [inhibitor, single point]"}, {"smiles": "Oc1c(Br)cc(C=Nc2ccc3nc(-c4ccccc4)[nH]c3c2)c(O)c1Br", "activity change, negative = inhibition": "inactive: -31.7%"}, {"smiles": "Cc1ccc(C(=O)NC2(O)C(=O)c3ccccc3C2=O)cc1C", "Potency": "active: 20 µM"}, {"smiles": "COCCNC(=S)N/N=C/c1c2ccccc2cc2ccccc12", "Potency": "active: 39.8 µM"}, {"smiles": "CC(NC(=O)C1CC1)C(c1cccs1)N1CCOCC1", "note": "(stereo not drawn)", "Potency": "inconclusive: 35.5 µM [inhibitor, single point]"}, {"smiles": "CCN(Cc1ccccc1)C(=O)Cn1nc2n(c1=O)CCCCC2", "activity change, negative = inhibition": "inactive: 15%"}, {"smiles": "COC(=O)c1c(NC(=O)COc2ccc(OC)cc2)sc2c1CCC(C)C2", "note": "(stereo not drawn)", "Potency": "inconclusive: 5.62 µM [inhibitor, full curve, poor fit]"}, {"smiles": "CC(C)Oc1ccc(CNC(=O)C2CCCN(S(=O)(=O)c3ccc4c(ccn4C)c3)C2)cc1", "note": "(stereo not drawn)", "activity change, negative = inhibition": "inactive: -19.6%"}, {"smiles": "COc1ccc(CN2CCN(S(=O)(=O)c3ccccc3)CC2)c(OC)c1", "Potency": "inconclusive: 0.501 µM [inhibitor, full curve, poor fit]"}, {"smiles": "O=C(Nc1ccc(-c2csc(Nc3ccc(Cl)cc3)n2)cc1)c1ccccc1", "Potency": "inconclusive: 17.8 µM [inhibitor, full curve, poor fit]"}, {"smiles": "COc1ccc(C(=O)CCN(C)C)cc1", "activity change, negative = inhibition": "inactive: -26.9%"}, {"smiles": "O=C(NCc1ccccn1)C1CCN(S(=O)(=O)c2cccc(OC(F)(F)F)c2)CC1", "activity change, negative = inhibition": "inactive: 12.1%"}, {"smiles": "COC(=O)C1=C(C)N(Cc2cccc(C(F)(F)F)c2)C(=NCc2ccc(OC)cc2)NC1c1cccc(C(F)(F)F)c1", "note": "(stereo not drawn)", "Potency": "inconclusive: 50.1 µM [inhibitor, partial curve, poor fit]"}, {"smiles": "COc1ccc2[nH]c(=O)c(CNc3ccc(C)cc3C)cc2c1", "activity change, negative = inhibition": "inactive: -26.5%"}, {"smiles": "CCOc1cccc(-c2c(C(=O)N/N=C(\\C)c3ccccn3)nnn2-c2nonc2N)c1", "activity change, negative = inhibition": "inactive: 1.66%"}, {"smiles": "CC1=C(C(=O)OCc2ccccc2)C(c2ccc(C)o2)C2=C(CCCC2=O)N1", "note": "(stereo not drawn)", "activity change, negative = inhibition": "inactive: 98.9%"}, {"smiles": "Cc1ccccc1CS(=O)(=O)N1CCC(C(=O)NC23CC4CC(CC(C4)C2)C3)CC1", "activity change, negative = inhibition": "inactive: 5.09%"}, {"smiles": "O=C(c1ccc([N+](=O)[O-])s1)N1CCN(c2ccccn2)CC1", "activity change, negative = inhibition": "inactive: 11.5%"}, {"smiles": "COC(=O)c1cccc(NC(=O)Nc2ccc(Cl)cc2)c1", "Potency": "inconclusive: 126 µM [inhibitor, single point]"}, {"smiles": "O=C1CCCc2occ(C(=O)N3CCCC4(CCNC4)C3)c21", "note": "(stereo not drawn)", "Potency": "inconclusive: 12.6 µM [inhibitor, full curve, poor fit]"}, {"smiles": "S=c1[nH]c2ccccc2n1CCc1ccncc1", "Potency": "inconclusive: 56.2 µM [inhibitor, partial curve, poor fit]"}, {"smiles": "CCOc1cc(/C=C2\\COc3ccccc3C2=O)ccc1OCC(=O)N(C)C", "activity change, negative = inhibition": "inactive: -5.81%"}, {"smiles": "COc1cc(OC)cc(-c2cc3c(Nc4cccc(O)c4)nccc3[nH]2)c1", "Potency": "inconclusive: 44.7 µM [inhibitor, partial curve, poor fit]"}, {"smiles": "CCCn1nc(C(=O)NCC(c2ccccc2)N2CCCC2)ccc1=O", "note": "(stereo not drawn)", "activity change, negative = inhibition": "inactive: 22.5%"}, {"smiles": "O=C1C(=Cc2cn(-c3ccccc3)nc2-c2ccc(OCc3ccc(Cl)cc3)cc2)SC(=S)N1CCS(=O)(=O)O", "activity change, negative = inhibition": "inactive: -87.2%"}, {"smiles": "CCC1CN(C(=O)Nc2cc(OC)cc(OC)c2)c2ccccc2S1", "note": "(stereo not drawn)", "Potency": "inconclusive: 141 µM [inhibitor, partial curve, poor fit]"}, {"smiles": "Nc1[nH]c(C(=O)c2ccccc2)c(-c2ccccn2)c1C(=O)c1c[nH]c2ccccc12", "Potency": "inconclusive: 44.7 µM [inhibitor, partial curve, poor fit]"}, {"smiles": "COCCN1C(=O)CS(=O)(=O)C12CCN(C(=O)c1ccc(F)cc1F)CC2", "activity change, negative = inhibition": "inactive: 37.2%"}, {"smiles": "COc1ccc(NC(=O)C2c3ccccc3Oc3ccccc32)cc1F", "Potency": "inconclusive: 35.5 µM [inhibitor, single point]"}, {"smiles": "COc1ccc(/C=C/C(=O)OCC(=O)Nc2cccc(S(=O)(=O)NC3=NCCCCC3)c2)cc1", "activity change, negative = inhibition": "inactive: 1.68%"}, {"smiles": "Cc1ccc2oc(C(=O)Nc3sc4c(c3C(=O)NCc3ccccc3)CCCC4)cc(=O)c2c1", "activity change, negative = inhibition": "inactive: -25.7%"}, {"smiles": "O=C(N/N=C/c1c(O)ccc2ccccc12)c1cccc(C(F)(F)F)c1", "Potency": "inconclusive: 1.58 µM [inhibitor, full curve]"}, {"smiles": "CCOc1ccc(N(CC(=O)NC2CCCCC2)C(=O)CNC(=O)c2cccs2)cc1", "Potency": "inconclusive: 0.501 µM [inhibitor, full curve, poor fit]"}, {"smiles": "CCn1nc(C(=O)N2CCC(C(N)=O)CC2)c2ccccc2c1=O", "activity change, negative = inhibition": "inactive: 13.2%"}, {"smiles": "O=C(Nc1ccccc1N1CCCC1)C1CCN(S(=O)(=O)c2cccc(C(F)(F)F)c2)CC1", "Potency": "inconclusive: 4.47 µM [inhibitor, full curve, poor fit]"}, {"smiles": "Cc1c(NC(=O)CCc2cc3n(n2)CCNC3)c(C)n(C)c(=O)c1C(N)=O", "Potency": "inconclusive: 17.8 µM [inhibitor, full curve]"}, {"smiles": "O=C(CSc1nc2ccccc2c(=O)n1CC1CCCO1)Nc1cccc(C(F)(F)F)c1", "note": "(stereo not drawn)", "Potency": "inconclusive: 100 µM [inhibitor, single point]"}, {"smiles": "CC(C)c1ccc(NC(=O)C2CCCC2)cc1", "Potency": "inconclusive: 35.5 µM [inhibitor, partial curve]"}, {"smiles": "Cc1ccc(OCCCC(=O)NCc2ccco2)cc1", "Potency": "inconclusive: 50.1 µM [inhibitor, partial curve, poor fit]"}, {"smiles": "CCCCc1ccc(S(=O)(=O)N[C@H]2CC[C@@]34CCCN3C(=O)CCC[C@H]4[C@H]2C)cc1", "Potency": "inconclusive: 1 µM [inhibitor, full curve, poor fit]"}, {"smiles": "COC(=O)c1ccc(COC(=O)CNS(=O)(=O)c2ccccc2)cc1", "Potency": "inconclusive: 50.1 µM [inhibitor, partial curve, poor fit]"}, {"smiles": "CCN1C(=O)N(C)[C@@H](c2ccccc2)C(C(C)=O)=C1C", "Potency": "inconclusive: 44.7 µM [inhibitor, partial curve, poor fit]"}, {"smiles": "O=C(c1cccc(F)c1)N1CC(=O)N2[C@@H](CO)[C@@H](c3ccc(Br)cc3)[C@@H]2C1", "Potency": "inconclusive: 100 µM [inhibitor, partial curve, poor fit]"}, {"smiles": "Cn1cc(CN2CCC(C(O)c3cccs3)CC2)c(-c2cccc(Cl)c2)n1", "note": "(stereo not drawn)", "activity change, negative = inhibition": "inactive: 4.14%"}, {"smiles": "COc1ccc(-n2nc3cc(C)c(NC(=O)c4ccc(C)cc4C)cc3n2)cc1Cl", "Potency": "inconclusive: 141 µM [inhibitor, partial curve, poor fit]"}, {"smiles": "O=C(N/C(=C/c1cccnc1)C(=O)N1CCOCC1)c1ccccc1Cl", "activity change, negative = inhibition": "inactive: 0%"}, {"smiles": "CCN1CCN(C(=S)c2ccc(OCC(=O)Nc3ccc(OC)cc3)cc2)CC1", "Potency": "inconclusive: 112 µM [inhibitor, single point]"}, {"smiles": "CCc1ccc(NC(=O)Cc2nc(-c3cc(C)n(-c4cc(C)on4)c3C)cs2)cc1", "Potency": "inconclusive: 7.94 µM [inhibitor, full curve]"}, {"smiles": "N#CC1=C2SCN(C3CCCCC3)CN2C(=O)CC1c1ccc(F)cc1", "note": "(stereo not drawn)", "Potency": "inconclusive: 44.7 µM [inhibitor, partial curve, poor fit]"}, {"smiles": "Cc1ccccc1NC(=O)Cn1c(=O)n(-c2ccc(F)cc2)c(=O)c2c1cc(C)n2C", "Potency": "inconclusive: 79.4 µM [inhibitor, single point]"}, {"smiles": "Cn1c(-c2ccc(F)cc2)cnc1NCc1ccc(F)cc1F", "Potency": "inconclusive: 1.12 µM [inhibitor, full curve, poor fit]"}, {"smiles": "O=C(NCc1ccco1)c1ccc2c(c1)C(=O)N(Cc1ccccc1)C2=O", "Potency": "inconclusive: 100 µM [inhibitor, partial curve, poor fit]"}, {"smiles": "COc1ccc(CCn2c(=N)c(C(=O)NCC3CCCO3)cc3c(=O)n4cccc(C)c4nc32)cc1", "note": "(stereo not drawn)", "Potency": "inconclusive: 35.5 µM [inhibitor, partial curve, poor fit]"}, {"smiles": "O=S1(=O)CCOC[C@H](CC2CCCCC2)N1Cc1cccc(Cl)c1", "Potency": "inconclusive: 50.1 µM [inhibitor, partial curve, poor fit]"}, {"smiles": "CC1C(=O)N2CCCc3cc(S(=O)(=O)Nc4ccc(Br)cc4F)cc1c32", "note": "(stereo not drawn)", "Potency": "inconclusive: 2.82 µM [inhibitor, full curve, poor fit]"}]}]}
